Patent publication US20040110802A1, “Antibacterial benzoic acid derivatives” (priority 2002, published 2004)
≈ marks a conversion by molar mass, not a printed value.

Tested on: SAUR 9218
Assay: MIC Test Method, standard agar dilution
Assay type: cell-based
Details: Mueller Hinton agar, incubated overnight at 35° C., lowest concentration that inhibits visible growth
Protocol: The in vitro MiCs of test compounds were determined by a standard agar dilution method. A stock drug solution of each analog was prepared in the preferred solvent, usually DMSO:H2O (1:3). Serial 2-fold dilutions of each sample are made using 1.0 ml aliquots of sterile distil]ed water. To each 1.0 ml aliquot of drug was added 9 ml of molten Mueller Hinton agar medium. The drug-supplemented agar was mixed, poured into 15×100 mm petri dishes, and allowed to solidify and dry prior to inoculation.
Vials of each of the test organisms are maintained frozen in the vapor phase of a liquid nitrogen freezer. Test cultures are grown overnight at 35° C. on the medium appropriate for the organism. Colonies are harvested with a sterile swab, and cell suspensions are prepared in Trypticase Soy broth (TSB) to equal the turbidity of a 0.5 McFamland standard. A 1:20 dilution of each suspension was made in TSB. The plates containing the drug supplemented agar are inoculated with a 0.001 ml drop of the cell suspension using a Steers replicator, yielding approximately 10^4 to 10^5 cells per spot. The plates are incubated overnight at 35° C.
Following incubation the Minimum Inhibitory Concentration (MIC μg/ml), the lowest concentration of drug that inhibits visible growth of the organism, was read and recorded.

N#Cc1ccc(NC(=O)c2noc3ccc(NCCO)cc23)c(C(=O)O)c1
MIC: 1 µg/mL (≈ 2.73 µM)
